According to PubChem BioAssay AID1671190 (National Center for Advancing Translational Sciences (NCATS), 2021):
About 6,100 (1.1%) of roughly 580,000 compounds were called active. The inconclusive results got no clear call from the source; some entries with a clear call stand among them for comparison. The call rests on the fitted dose curve; in most records, active means well fitted inhibition curve with a large enough effect; inconclusive means small, poorly fitted or top-dose-only effect, or another doubt; inactive means no such curve, though single readings can be large or run the other way. Where the call is inconclusive, the potency comes from a doubtful curve fit.

Sequences of proteins named here, by UniProt entry; tags and fusion partners are left off. A change or cut given only in a name is not applied to a line headed by its entry.
UniProt P18054: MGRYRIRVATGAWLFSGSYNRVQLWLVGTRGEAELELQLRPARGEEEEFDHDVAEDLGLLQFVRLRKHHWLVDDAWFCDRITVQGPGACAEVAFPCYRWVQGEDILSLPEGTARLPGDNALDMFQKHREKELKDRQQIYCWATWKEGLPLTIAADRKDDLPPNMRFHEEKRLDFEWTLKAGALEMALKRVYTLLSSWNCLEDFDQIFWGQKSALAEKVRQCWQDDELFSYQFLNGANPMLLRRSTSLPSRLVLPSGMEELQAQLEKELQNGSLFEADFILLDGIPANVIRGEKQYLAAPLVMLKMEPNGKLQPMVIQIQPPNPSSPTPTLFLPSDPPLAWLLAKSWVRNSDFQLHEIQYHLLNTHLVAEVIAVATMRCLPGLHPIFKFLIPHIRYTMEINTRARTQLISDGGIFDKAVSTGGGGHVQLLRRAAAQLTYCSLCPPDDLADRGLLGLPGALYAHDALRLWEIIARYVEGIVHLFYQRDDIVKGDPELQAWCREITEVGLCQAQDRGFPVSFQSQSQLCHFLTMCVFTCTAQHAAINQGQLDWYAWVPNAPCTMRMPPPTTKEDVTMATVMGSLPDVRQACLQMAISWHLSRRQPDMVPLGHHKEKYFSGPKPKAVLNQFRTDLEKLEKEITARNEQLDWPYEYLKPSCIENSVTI

biological target: Polyunsaturated fatty acid lipoxygenase ALOX12 (Homo sapiens) (UniProt P18054); assay: Primary qHTS assay for inhibitors of human arachidonate 12S-lipoxygenase (ALOX12): Round 2; conditions: purified 12hLO, xylenol orange hydroperoxide absorbance; activity change, negative = inhibition: at 108 µM (top of the series) unless noted
Procedure, shortened: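 Purified human 12hLO at 150 nM in 25 mM Hepes, 0.01% Triton X-100, pH 7.0, preincubated 15 min at room temperature with compound. Reaction started with 40 uM arachidonic acid, 30 min at room temperature. Hydroperoxide measured by Fe-xylenol orange, 573/405 nm absorbance ratio.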
On the % scale 0 is the no-effect control and ±100 the full control effect; potency means the concentration at half of the fitted maximal effect.

Structure (SMILES)	Potency	activity change, negative = inhibition
CN(C)S(=O)(=O)N(CC(=O)N1CCN(c2cccc(Cl)c2)CC1)c1ccc(F)cc1	inconclusive: 0.562 µM [inhibitor, full curve, poor fit]	
COc1cccc2cc(-c3n[nH]c(=S)n3C)oc12	inconclusive: 44.7 µM [inhibitor, partial curve, poor fit]	
CC[C@H]1CN(S(=O)(=O)c2ccccc2)CC[C@H]1CC(=O)NC1CCCC1	inactive	
CC(C)(C)C(=O)N1CCCC2(CN[S+](=O)([O-])c3cccnc3O2)C1 (configuration not stated)		inactive: 1.6% [at 6.33 µM]
COc1cc(/C=C/c2nc(C#N)c(N3CCCC3)o2)cc(OC)c1OC	inconclusive: 56.2 µM [inhibitor, partial curve, poor fit]	
c1csc(-c2ccc3nncn3c2)c1	inconclusive: 89.1 µM [inhibitor, partial curve, poor fit]	
COc1ccc2c(c1)Cc1sc(NC(=O)c3ccc(Cl)cc3)nc1-2	inconclusive: 35.5 µM [inhibitor, partial curve, poor fit]	
Nn1c(SCC(=O)NC2CCCCC2)nnc1C1CC1	inactive	
Cc1cccn2c(=O)c3cc(C(=O)NC(C)c4ccccc4)c(=N)n(CCOCCO)c3nc12 (configuration not stated)	inconclusive: 63.1 µM [inhibitor, partial curve, poor fit]	
COc1ccc(Oc2ccc(/C=C/C(=O)c3ccc(O)cc3)cc2[N+](=O)[O-])cc1	inactive	
CCN(CC)S(=O)(=O)c1ccc(/C=C/C(=O)Nc2ccc(F)cc2F)cc1	inactive	
NCCSC1CC(=O)N(Cc2ccc(F)cc2)C1=O (configuration not stated)	inactive	
C=CCN1c2ccc(Br)cc2C(=O)CS1(=O)=O	inconclusive: 89.1 µM [inhibitor, partial curve, poor fit]	
N#CCc1ccccc1C(=O)OCC(=O)N1CCN(c2ccccc2)CC1	inconclusive: 100 µM [inhibitor, single point]	
O=C1OCCN1c1ccccc1	inconclusive: 50.1 µM [inhibitor, partial curve, poor fit]	
COc1ccc(Cl)cc1NC(=O)c1c(NCc2cccs2)sc2c1CCCC2	inconclusive: 56.2 µM [inhibitor, partial curve, poor fit]	
Oc1ccc(NCc2ccccc2OCc2ccccc2Cl)cc1	inactive	
Cc1cc(C)nc(NC(=S)Nc2cccc(Cl)c2Cl)c1	inactive	
CCC1(C(=O)c2ccc(Cl)cc2)C2c3ccccc3OC(=O)C21C(=O)Nc1ccccc1 (configuration not stated)	inconclusive: 63.1 µM [inhibitor, partial curve, poor fit]	
Cc1ccc(/C=C(/C#N)C(=O)NC(C)c2ccccc2)o1 (configuration not stated)	inactive	
Cc1ccccc1C(=O)N1CCC(N2CCCCCC2=O)CC1	active: 89.1 µM	
Cc1ccc(S(=O)(=O)N(C)Cc2ccccc2)cc1C(=O)N1CCCCC1	inactive	
CCOc1ccc(OCc2ccc(C(=O)N3CCOCC3)cc2)cc1	inactive	
COc1cc(C2CC(=O)Nc3n[nH]c(Nc4ccccc4)c32)cc(OC)c1OC (configuration not stated)	inconclusive: 8.91 µM [inhibitor, full curve, poor fit]	

Structure (SMILES)	Potency	activity change, negative = inhibition
Cc1c(Cl)cccc1S(=O)(=O)Nc1ccc(NC(N)=O)cc1	inconclusive: 7.94 µM [inhibitor, single point]	
CCOc1ccc(S(=O)(=O)N(C)CC(=O)NC2CCCC2)cc1	inactive	
c1csc(CNCCC2CCCC2)c1	inactive	
Cc1cnn(C2(C(=O)O)CCN(C(=O)c3cnn4cccnc34)CC2)c1	inconclusive: 17.8 µM [inhibitor, full curve, poor fit]	
O=C(CSc1nnc(C2CC2)n1Cc1ccccc1)c1cc2ccccc2o1	inactive	
COc1cccc(NC(=O)C2Cc3ccccc3CN2C(=O)c2ccco2)c1 (configuration not stated)	inactive	
O=C(CCc1c[nH]c2ccccc12)Nc1ccc(Nc2ccccc2)cc1	inconclusive: 89.1 µM [inhibitor, single point]	
O=C(NC1CCCc2ccccc21)c1cc(-c2cccnc2)nc2ccc(Cl)cc12 (configuration not stated)	inconclusive: 5.01 µM [inhibitor, partial curve, poor fit]	
c1ccc(OCc2nnc3sc(-c4ccccc4)nn23)cc1	active: 8.91 µM	
Cc1c(C(=O)N2CCOC(C)C2)cnn1-c1ccccc1F (configuration not stated)	inactive	
Cc1cc(Nc2ccc(Cl)cc2)n2cnnc2n1	inactive	
Oc1cc2c(c(Cl)c1O)CCNCC2c1ccccc1 (configuration not stated)	inconclusive: 39.8 µM [inhibitor, partial curve]	
Cc1cc2ccccn2c1C(=O)c1ccccc1Br	inactive	
Cc1csc(N/N=C/c2ccc(O)c([N+](=O)[O-])c2)n1	inconclusive: 7.94 µM [inhibitor, full curve, poor fit]	
CN(C)S(=O)(=O)c1ccc(NC(=S)NC(=O)C2CCC2)cc1	inconclusive: 79.4 µM [inhibitor, single point]	
C[C@]12C=CC(=O)N[C@@H]1CC[C@H]1[C@H]3CC[C@@H](C(=O)Nc4cc(C(F)(F)F)ccc4C(F)(F)F)[C@@]3(C)CC[C@@H]12	inconclusive: 19.3 µM [inhibitor, partial curve, poor fit]	
CC1(C)COCCN1C(=O)c1ccc(OCC2CCCO2)cc1 (configuration not stated)	inactive	
O=C1C=CC(=Nc2ccc3c(c2)Cc2cc(F)ccc2-3)O1	inconclusive: 2.82 µM [inhibitor, full curve]	
Cc1[nH]c2ccccc2c1C(c1ccc(O)cc1)c1c(C)[nH]c2ccccc12	active: 14.1 µM	
Cc1ccc(NC(=S)NCCSc2ccc(Cl)cc2)c(C)c1	inconclusive: 44.7 µM [inhibitor, partial curve, poor fit]	
CC(=O)N1CCC([C@@H]2CN(C3CCN(CC(C)C)CC3)C[C@H]2CO)CC1	inactive	
COc1cccc(-c2nc(NCCN3CCOCC3)c3ccccc3n2)c1	inconclusive: 15.8 µM [inhibitor, partial curve, poor fit]	
C/C(CC(=O)Nc1ccc(Cl)cc1)=N\NC(=O)c1cccnc1	inconclusive: 0.282 µM [inhibitor, full curve, poor fit]	
CCCCCCOc1ccc(/C(N)=N/O)cc1	inactive	

Structure (SMILES)	Potency	activity change, negative = inhibition
O=C(N[C@H]1CCN2C(=O)c3cc(-c4ccc(F)cc4F)ccc3NC(=O)[C@H]12)c1cccs1	inconclusive: 31.6 µM [inhibitor, partial curve]	
Cc1ccc(Cc2c(-c3ccccc3)nc3cc(C)ccn23)cc1	inconclusive: 89.1 µM [inhibitor, partial curve, poor fit]	
Cc1c(C(=O)O)sc2nc(/C=C/c3ccccc3OC(F)F)[nH]c(=O)c12	inactive	
N#C/C(=C\c1c(Oc2ccc(F)cc2)nc2ccccn2c1=O)c1nc2ccccc2s1	inconclusive: 2.82 µM [inhibitor, full curve, poor fit]	
CC1CC(C)CN(c2ccc(-n3cnnn3)cc2[N+](=O)[O-])C1 (configuration not stated)	inactive	
COc1ccc(-c2c(-c3ccc4c(c3)OCO4)c3ccccc3n2C)cc1	inconclusive: 35.5 µM [inhibitor, partial curve]	
O=C(CCc1c[nH]c2ccccc12)Oc1ccc2ccc(=O)oc2c1	inconclusive: 0.562 µM [inhibitor, full curve, poor fit]	
Cn1nc(C(=O)OCC(=O)NC(C)(C#N)C2CC2)c2ccccc2c1=O (configuration not stated)	inconclusive: 56.2 µM [inhibitor, partial curve, poor fit]	
CC(O)CNc1nc2c(c(=O)n(Cc3ccccc3Cl)c(=O)n2C)n1C (configuration not stated)	inconclusive: 89.1 µM [inhibitor, single point]	
O=C(N[C@@H]1CCC(=O)N(CC[C@H](Sc2ccccc2)c2ccccc2)CC1)OCc1ccccc1	inactive	
COc1cccc(NC(=O)CSc2nc3c(=O)[nH]cnc3n2-c2ccc(C)cc2)c1	inactive	
CC(C)CNc1ncnc2c1cnn2Cc1ccc(Cl)cc1	inconclusive: 44.7 µM [inhibitor, partial curve, poor fit]	
CC(C)c1ccc(CN(c2ccc3nnc(C(F)(F)F)n3n2)C2CC2)cc1	inconclusive: 44.7 µM [inhibitor, partial curve, poor fit]	
CCCn1[nH]cc(SC)c(=O)c1=O	inconclusive: 3.55 µM [inhibitor, full curve, poor fit]	
Cc1ccc(-c2cc(C(F)F)n3ncc(C(=O)Nc4c(C)nn(Cc5c(Cl)cccc5Cl)c4C)c3n2)cc1	inconclusive: 141 µM [inhibitor, single point]	
O=C(NNc1c2ccccc2nc2ccccc12)c1ccc(O)cc1O	inactive	
COc1cc2cc(C)c(SCC(=O)N3CCN(C(=O)c4ccco4)CC3)nc2cc1OC	inconclusive: 2 µM [inhibitor, full curve]	
CCC(CC)NC(=O)/C=C/c1csc(C)n1	inactive	
CN(C(=O)c1ccc2c(c1)C(=O)c1ccccc1-2)C1CCCc2ccccc21 (configuration not stated)	inconclusive: 35.5 µM [inhibitor, partial curve, poor fit]	
O=C(O)CCCCC1CCSS1 (configuration not stated)	inconclusive: 11.2 µM [inhibitor, full curve, poor fit]	
CC(=O)NC(N(C#N)c1nc(Cl)nc(N(C)C)n1)C(Cl)(Cl)Cl (configuration not stated)	inconclusive: 50.1 µM [inhibitor, partial curve, poor fit]	
CCC(C)(C)NC(=O)CNc1cccc(-c2nnnn2C)c1	inactive	
COc1ccc2nc3n(c(=O)c2c1)-c1ccccc1C(=O)NC3Cc1ccccc1 (configuration not stated)	inconclusive: 12.6 µM [inhibitor, full curve]	
O=C1CC(c2ccc(F)cc2)c2c(n3c(nc4ccccc43)[nH]c2=O)N1 (configuration not stated)	inactive	

Three entries from above, sorted by molecular weight, rising:
Structure (SMILES)	Potency	activity change, negative = inhibition
COc1cc(/C=C/c2nc(C#N)c(N3CCCC3)o2)cc(OC)c1OC	inconclusive: 56.2 µM [inhibitor, partial curve, poor fit]	
CC[C@H]1CN(S(=O)(=O)c2ccccc2)CC[C@H]1CC(=O)NC1CCCC1	inactive	
N#C/C(=C\c1c(Oc2ccc(F)cc2)nc2ccccn2c1=O)c1nc2ccccc2s1	inconclusive: 2.82 µM [inhibitor, full curve, poor fit]	
